Experimental findings from patent US10450346B2, “Immunotherapy against several tumors of the blood, in particular chronic lymphoid leukemia (CLL)” (Immatics biotechnologies GmbH, priority 2014, dated 2019) are described below.

The series concerns primary CLL samples (PBMC from CLL patients), HLA class I ligands. Briefly: HLA class I ligandome analysis by LC-MS/MS (frequency of HLA restricted presentation). Further details: species or system human. Particulars: for Number of positive CLLs: CLL patient HLA class I ligandomes (n = 30); for Number of positive CLLs (frequency [%]): source protein (LiTAA) representation in CLL patient HLA class I ligandomes (n = 30).

B1: cell division cycle associated 7-like (protein, UniProt Q96GN5 1-454, looked up)
Cell division …: MELATRYQIPKEVADIFNAPSDDEEFVGFRDDVPMETLSSEESCDSFDSLESGKQQDVRFHSKYFTEELRRIFIEDTDSETEDFAGFTQSDLNGKTNPEVMVVESDLSDDGKASLVSEEEEDEEEDKATPRRSRSRRSSIGLRVAFQFPTKKLANKPDKNSSSEQLFSSARLQNEKKTILERKKDCRQVIQREDSTSESEDDSRDESQESSDALLKRTMNIKENKAMLAQLLAELNSMPDFFPVRTPTSASRKKTVRRAFSEGQITRRMNPTRSARPPEKFALENFTVSAAKFAEEFYSFRRRKTIGGKCREYRRRHRISSFRPVEDITEEDLENVAITVRDKIYDKVLGNTCHQCRQKTIDTKTVCRNQGCCGVRGQFCGPCLRNRYGEDVRSALLDPDWVCPPCRGICNCSYCRKRDGRCATGILIHLAKFYGYDNVKEYLESLQKELVEDN
notes: LiTAA source protein
As for B1, the “Number of positive CLLs” value amounted to 11 and the “Number of positive CLLs (frequency [%])” value came out at 36.7%.

B2: A kinase (PRKA) anchor protein 2 (protein, UniProt Q9Y2D5 1-1103, looked up)
PALM2-AKAP2 fusion protein: MAEAELHKERLQAIAEKRKRQTEIEGKRQQLDEQILLLQHSKSKVLREKWLLQGIPAGTAEEEEARRRQSEEDEFRVKQLEDNIQRLEQEIQTLESEESQISAKEQIILEKLKETEKSFKDFQKGFSSTDGDAVNYISSQLPDLPILCSRTAEPSPGQDGTSRAAGVGWENVLLKEGESASNATETSGPDMTIKKPPQLSEDDIWLKSEGDNYSATLLEPAASSLSPDHKNMEIEVSVAECKSVPGITSTPHPMDHPSAFYSPPHNGLLTDHHESLDNDVAREIRYLDEVLEANCCDSAVDGTYNGTSSPEPGAVVLVGGLSPPVHEATQPEPTERTASRQAPPHIELSNSSPDPMAEAERTNGHSPSQPRDALGDSLQVPVSPSSTTSSRCSSRDGEFTLTTLKKEAKFELRAFHEDKKPSKLFEDDEHEKEQYCIRKVRPSEEMLELEKERRELIRSQAVKKNPGIAAKWWNPPQEKTIEEQLDEEHLESHKKYKERKERRAQQEQLLLQKQLQQQQQQPPSQLCTAPASSHERASMIDKAKEDIVTEQIDFSAARKQFQLMENSRQAVAKGQSTPRLFSIKPFYRPLGSVNSDKPLTNPRPPSVGGPPEDSGASAAKGQKSPGALETPSAAGSQGNTASQGKEGPYSEPSKRGPLSKLWAEDGEFTSARAVLTVVKDDDHGILDQFSRSVNVSLTQEELDSGLDELSVRSQDTTVLETLSNDFSMDNISDSGASNETTNALQENSLADFSLPQTPQTDNPSEGRGEGVSKSFSDHGFYSPSSTLGDSPLVDDPLEYQAGLLVQNAIQQAIAEQVDKAVSKTSRDGAEQQGPEATVEEAEAAAFGSEKPQSMFEPPQVSSPVQEKRDVLPKILPAEDRALRERGPPQPLPAVQPSGPINMEETRPEGSYFSKYSEAAELRSTASLLATQESDVMVGPFKLRSRKQRTLSMIEEEIRAAQEREEELKRQRQVLQSTQSPRTKNAPSLPSRTCYKTAPGKIEKVKPPPSPTTEGPSLQPDLAPEEAAGTQRPKNLMQTLMEDYETHKSKRRERMDDSSYTSKLLSCKVTSEVLEATRVNRRKSALALRWEAGIYANQEEEDNE
notes: LiTAA source protein
For the molecule B2, the “Number of positive CLLs” value stood at 11 and the “Number of positive CLLs (frequency [%])” value came out at 36.7%.

B3: Ras protein-specific guanine nucleotide-releasing factor 1 (protein, UniProt Q13972 1-1273, looked up)
Ras-specific guanine …: MQKGIRLNDGHVASLGLLARKDGTRKGYLSKRSSDNTKWQTKWFALLQNLLFYFESDSSSRPSGLYLLEGCVCDRAPSPKPALSAKEPLEKQHYFTVNFSHENQKALELRTEDAKDCDEWVAAIAHASYRTLATEHEALMQKYLHLLQIVETEKTVAKQLRQQIEDGEIEIERLKAEITSLLKDNERIQSTQTVAPNDEDSDIKKIKKVQSFLRGWLCRRKWKTIIQDYIRSPHADSMRKRNQVVFSMLEAEAEYVQQLHILVNNFLRPLRMAASSKKPPITHDDVSSIFLNSETIMFLHQIFYQGLKARISSWPTLVLADLFDILLPMLNIYQEFVRNHQYSLQILAHCKQNRDFDKLLKHYEAKPDCEERTLETFLTYPMFQIPRYILTLHELLAHTPHEHVERNSLDYAKSKLEELSRIMHDEVSETENIRKNLAIERMIIEGCEILLDTSQTFVRQGSLIQVPMSEKGKITRGRLGSLSLKKEGERQCFLFSKHLIICTRGSGGKLHLTKNGVISLIDCTLLEEPESTEEEAKGSGQDIDHLDFKIGVEPKDSPPFTVILVASSRQEKAAWTSDISQCVDNIRCNGLMMNAFEENSKVTVPQMIKRTREGTREAEMSRSDASLYCDDVDIRFSKTMNSCKVLQIRYASVERLLERLTDLRFLSIDFLNTFLHSYRVFTTAIVVLDKLITIYKKPISAIPARWLRSLELLFASGQNNKLLYGEPPKSPRATRKFSSPPPLSITKTSSPSRRRKLSLNIPIITGGKALDLAALSCNSNGYTSMYSAMSPFSKATLDTSKLYVSSSFTNKIPDEGDTTPEKPEDPSALSKQSSEVSMREESDIDQNQSDDGDTETSPTKSPTTPKSVKNKNSSEFPLFSYNNGVVMTSCRELDNNRSALSAASAFAIATAGANEGTPNKEKYRRMSLASAGFPPDQRNGDKEFVIRRAATNRVLNVLRHWVSKHSQDFETNDELKCKVIGFLEEVMHDPELLTQERKAAANIIRTLTQEDPGDNQITLEEITQMAEGVKAEPFENHSALEIAEQLTLLDHLVFKKIPYEEFFGQGWMKLEKNERTPYIMKTTKHFNDISNLIASEIIRNEDINARVSAIEKWVAVADICRCLHNYNAVLEITSSMNRSAIFRLKKTWLKVSKQTKALIDKLQKLVSSEGRFKNLREALKNCDPPCVPYLGMYLTDLAFIEEGTPNYTEDGLVNFSKMRMISHIIREIRQFQQTAYKIEHQAKVTQYLLDQSFVMDEESLYESSLRIEPKLPT
notes: LiTAA source protein
For B3, the “Number of positive CLLs” value was 12 and the “Number of positive CLLs (frequency [%])” value came to 40.0%.

B4: ubiquitin-like 7 (protein, UniProt Q96S82 1-380, looked up)
Ubiquitin-like protein 7: MSLSDWHLAVKLADQPLTPKSILRLPETELGEYSLGGYSISFLKQLIAGKLQESVPDPELIDLIYCGRKLKDDQTLDFYGIQPGSTVHVLRKSWPEPDQKPEPVDKVAAMREFRVLHTALHSSSSYREAVFKMLSNKESLDQIIVATPGLSSDPIALGVLQDKDLFSVFADPNMLDTLVPAHPALVNAIVLVLHSVAGSAPMPGTDSSSRSMPSSSYRDMPGGFLFEGLSDDEDDFHPNTRSTPSSSTPSSRPASLGYSGAAGPRPITQSELATALALASTPESSSHTPTPGTQGHSSGTSPMSSGVQSGTPITNDLFSQALQHALQASGQPSLQSQWQPQLQQLRDMGIQDDELSLRALQATGGDIQAALELIFAGGAP
notes: LiTAA source protein
For the molecule B4, the “Number of positive CLLs” value was 6 and the “Number of positive CLLs (frequency [%])” value stood at 20.0%.

B5: zinc finger protein 107 (protein, UniProt Q9UII5 1-783, looked up)
Zinc finger protein 107: MVAKPPVMSFHFAQDLWPEQNIKDSFQKVTLRRYGKCEYENLQLRKGCKHVDECTGHKGGHNTVNQCLTATPSKIFQCNKYVKVFDKFSNSNRYKRRHTGNKHFKCKECSKSFCVLSQLTQHRRIHTRVNSYKCEECGKAFNWFSTLTKHKRIHTGEKPYKCEECGKAFNQSSQLTRHKIIHTEEKPNKCEECGKAFKQASHLTIHKIIHTGEKPYKYEECGKVFSQSSHLTTQKILHTGENLYKCKECGKAFNLFSNLTNHKRIHAGEKPYKCKECGRAFNISSNLNKQEKIHTGGKLNKCEECDKAFNRSLKLTAHKKILMEEKPYKCEECGKVFNQFSTLTRHKIIHTGEKPYKCKECGKAFNQSSNLTEHKKIHTAEKSYKCEECGKAFNQHSNLINHRKIYSGEKPYKCEECGKAFNRSSTLTRHKKIHTGEKPYKCEECDRAFSQSSNLTEHKKIHTGEKPYKCEECGKAFNRFSTLTKHKRIHTGEKPYKCEECGKAFNQSYQLTRHKIVHTKEKLNKCEEFGKAFKQSSHRTIHKIIHTGEKPYKCEEHGKVFNQSSNLTTQKIIHTGENLYKFEEHGKAFNLFSNITNHKIIYTGEKPHKCEECGKAYNRFSNLTIHKRIHTGEKPYQCAECGKAFNCSSTLNRHKIIHTGEKPYKCKECGKAFNLSSTLTAHKKIHTGEKPYKCEECGKAFNQSSNLTTHKKIHTSEKPYKCEECGKSFNQFSSLNIHKIIHTGEKPYKCGDYGRAFNLSSNLTTHKKIHTGEKPYKCEYGKT
notes: LiTAA source protein
Regarding B5, the “Number of positive CLLs” value amounted to 6 and the “Number of positive CLLs (frequency [%])” value is listed as 20.0%.

B6: TRAF3 interacting protein 3 (protein, UniProt Q9Y228 1-551, looked up)
TRAF3-interacting …: MISPDPRPSPGLARWAESYEAKCERRQEIRESRRCRPNVTTCRQVGKTLRIQQREQLQRARLQQFFRRRNLELEEKGKAQHPQAREQGPSRRPGQVTVLKEPLSCARRISSPREQVTGTSSEVFPAQHPPPSGICRDLSDHLSSQAGGLPPQDTPIKKPPKHHRGTQTKAEGPTIKNDASQQTNYGVAVLDKEIIQLSDYLKEALQRELVLKQKMVILQDLLSTLIQASDSSWKGQLNEDKLKGKLRSLENQLYTCTQKYSPWGMKKVLLEMEDQKNSYEQKAKESLQKVLEEKMNAEQQLQSTQRSLALAEQKCEEWRSQYEALKEDWRTLGTQHRELESQLHVLQSKLQGADSRDLQMNQALRFLENEHQQLQAKIECLQGDRDLCSLDTQDLQDQLKRSEAEKLTLVTRVQQLQGLLQNQSLQLQEQEKLLTKKDQALPVWSPKSFPNEVEPEGTGKEKDWDLRDQLQKKTLQLQAKEKECRELHSELDNLSDEYLSCLRKLQHCREELNQSQQLPPRRQCGRWLPVLMVVIAAALAVFLANKDNLMI
notes: LiTAA source protein
As to B6, the “Number of positive CLLs” value was found to be 6 and the “Number of positive CLLs (frequency [%])” value is recorded as 20.0%.

B7: chromosome X open reading frame 21 (protein, UniProt Q9HAI6 1-301, looked up)
TLR adapter interacting with …: MLSEGYLSGLEYWNDIHWSCASYNEQVAGEKEEETNSVATLSYSSVDETQVRSLYVSCKSSGKFISSVHSRESQHSRSQRVTVLQTNPNPVFESPNLAAVEICRDASRETYLVPSSCKSICKNYNDLQIAGGQVMAINSVTTDFPSESSFEYGPLLKSSEIPLPMEDSISTQPSDFPQKPIQRYSSYWRITSIKEKSSLQMQNPISNAVLNEYLEQKVVELYKQYIMDTVFHDSSPTQILASELIMTSVDQISLQVSREKNLETSKARDIVFSRLLQLMSTEITEISTPSLHISQYSNVNP
notes: LiTAA source protein
As for B7, the “Number of positive CLLs” value is listed as 6 and the “Number of positive CLLs (frequency [%])” value is given as 20.0%.
